# Values quoted from earlier work, collected in patent US10195257B2 (Qantu Therapeutics, Inc., priority 2013, dated 2019).
# Some of these results come from one statement about several compounds together.
# Tested on: IgG titers
# Details: absence versus presence of polysorbate-80
substance,measurement,value
QS-21,enhancement of adjuvanticity based on IgG titers,≥ 10 fold
